Test results published in article PMC6782003.
No constants are given. Whether binding was seen depends on the method and setting. In cells and extracts the contact can be indirect. Some binding calls cover weakened binding; strength is not graded here. For some assays here: Tags and fused reporters may be left off the sequences shown.

Sequences of proteins named here, by UniProt entry; tags and fusion partners are left off.
UniProt Q91XJ1: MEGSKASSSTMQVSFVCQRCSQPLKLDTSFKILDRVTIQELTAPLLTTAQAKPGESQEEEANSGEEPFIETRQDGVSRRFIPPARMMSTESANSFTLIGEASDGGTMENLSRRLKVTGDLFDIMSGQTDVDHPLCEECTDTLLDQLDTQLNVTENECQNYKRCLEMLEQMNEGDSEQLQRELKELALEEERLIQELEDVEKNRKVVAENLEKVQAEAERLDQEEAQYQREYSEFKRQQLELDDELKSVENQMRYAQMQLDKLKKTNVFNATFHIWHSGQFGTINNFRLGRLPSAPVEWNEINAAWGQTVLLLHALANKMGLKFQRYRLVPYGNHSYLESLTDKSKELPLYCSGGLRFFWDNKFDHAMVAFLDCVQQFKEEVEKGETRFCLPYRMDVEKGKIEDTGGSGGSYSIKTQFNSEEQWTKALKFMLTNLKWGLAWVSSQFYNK

Key:
Flag-14-3-3t = molecular target: T1, Flag-14-3-3t (UniProt P68255); assay: co-IP; lysate of neuronal cells overexpressing Flag-14-3-3t (adenovirus); anti-Flag antibody, protein A/G magnetic beads, overnight 4 °C; buffer A (20 mM Tris-HCl pH 7.4, 150 mM NaCl, 1% Triton X-100, 0.5% sodium deoxycholate); immunoblot
T1 sequence: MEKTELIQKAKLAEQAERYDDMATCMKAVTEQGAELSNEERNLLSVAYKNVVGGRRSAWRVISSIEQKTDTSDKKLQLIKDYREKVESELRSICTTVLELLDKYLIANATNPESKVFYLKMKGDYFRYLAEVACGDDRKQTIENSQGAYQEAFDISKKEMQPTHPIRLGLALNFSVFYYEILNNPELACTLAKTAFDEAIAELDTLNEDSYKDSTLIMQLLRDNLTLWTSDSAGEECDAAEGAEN

14-3-3t = molecular target: T2, 14-3-3t (UniProt P68255); assay: proximity ligation; indirect in situ PLA (Duolink, Detection Reagents Red) on fixed, permeabilised neurons following Glu treatment; two primary antibodies (mouse and rabbit); confocal microscopy
T2 sequence: T1 sequence

## Beclin-1 (from UniProt Q91XJ1 1-448)
Flag-14-3-3t
  binding: binds
14-3-3t
  binding: binds
